Data as given in the supplement of paper PMC10849652.
The list shows a part of the results.

Sequences of proteins named here, by UniProt entry; tags and fusion partners are left off. A change or cut given only in a name is not applied to a line headed by its entry.
UniProt O75431: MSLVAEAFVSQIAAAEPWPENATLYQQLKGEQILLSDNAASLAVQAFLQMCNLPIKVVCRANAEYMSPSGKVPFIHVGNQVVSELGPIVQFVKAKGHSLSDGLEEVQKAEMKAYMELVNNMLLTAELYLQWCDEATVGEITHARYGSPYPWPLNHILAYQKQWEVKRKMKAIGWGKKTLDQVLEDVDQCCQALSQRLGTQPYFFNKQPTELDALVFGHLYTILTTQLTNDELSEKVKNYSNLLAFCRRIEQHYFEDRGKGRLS
UniProt Q96DH6: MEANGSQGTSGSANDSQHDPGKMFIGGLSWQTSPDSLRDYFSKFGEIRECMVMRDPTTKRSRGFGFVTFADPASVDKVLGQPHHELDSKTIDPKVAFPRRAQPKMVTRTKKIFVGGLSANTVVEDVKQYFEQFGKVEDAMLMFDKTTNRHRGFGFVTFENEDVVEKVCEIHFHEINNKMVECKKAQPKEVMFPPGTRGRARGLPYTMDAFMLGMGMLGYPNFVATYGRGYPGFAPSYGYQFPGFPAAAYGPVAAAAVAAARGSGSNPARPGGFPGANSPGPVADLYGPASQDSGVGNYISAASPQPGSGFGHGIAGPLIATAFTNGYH
UniProt P00403, whole entry, looked up: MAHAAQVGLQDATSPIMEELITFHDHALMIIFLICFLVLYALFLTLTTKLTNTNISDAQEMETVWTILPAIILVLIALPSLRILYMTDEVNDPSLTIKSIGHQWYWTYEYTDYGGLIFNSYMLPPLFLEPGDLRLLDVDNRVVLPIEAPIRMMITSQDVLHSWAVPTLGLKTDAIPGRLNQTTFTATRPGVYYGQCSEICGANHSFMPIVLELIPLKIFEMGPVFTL
UniProt Q9P0P8: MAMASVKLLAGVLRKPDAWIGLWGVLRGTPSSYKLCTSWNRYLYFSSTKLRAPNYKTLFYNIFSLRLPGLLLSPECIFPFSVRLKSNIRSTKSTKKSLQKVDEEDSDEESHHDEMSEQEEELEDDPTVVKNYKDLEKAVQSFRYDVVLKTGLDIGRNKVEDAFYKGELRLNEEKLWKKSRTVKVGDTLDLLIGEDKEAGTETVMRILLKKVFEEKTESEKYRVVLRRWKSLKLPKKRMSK
UniProt Q9H019: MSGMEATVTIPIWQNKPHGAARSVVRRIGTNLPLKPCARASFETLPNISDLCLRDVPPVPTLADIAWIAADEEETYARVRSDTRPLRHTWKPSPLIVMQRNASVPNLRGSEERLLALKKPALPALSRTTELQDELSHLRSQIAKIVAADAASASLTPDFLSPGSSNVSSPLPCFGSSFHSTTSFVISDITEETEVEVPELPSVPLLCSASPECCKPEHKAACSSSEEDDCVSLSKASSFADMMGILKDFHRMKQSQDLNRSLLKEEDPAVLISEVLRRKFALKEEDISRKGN
UniProt Q13330: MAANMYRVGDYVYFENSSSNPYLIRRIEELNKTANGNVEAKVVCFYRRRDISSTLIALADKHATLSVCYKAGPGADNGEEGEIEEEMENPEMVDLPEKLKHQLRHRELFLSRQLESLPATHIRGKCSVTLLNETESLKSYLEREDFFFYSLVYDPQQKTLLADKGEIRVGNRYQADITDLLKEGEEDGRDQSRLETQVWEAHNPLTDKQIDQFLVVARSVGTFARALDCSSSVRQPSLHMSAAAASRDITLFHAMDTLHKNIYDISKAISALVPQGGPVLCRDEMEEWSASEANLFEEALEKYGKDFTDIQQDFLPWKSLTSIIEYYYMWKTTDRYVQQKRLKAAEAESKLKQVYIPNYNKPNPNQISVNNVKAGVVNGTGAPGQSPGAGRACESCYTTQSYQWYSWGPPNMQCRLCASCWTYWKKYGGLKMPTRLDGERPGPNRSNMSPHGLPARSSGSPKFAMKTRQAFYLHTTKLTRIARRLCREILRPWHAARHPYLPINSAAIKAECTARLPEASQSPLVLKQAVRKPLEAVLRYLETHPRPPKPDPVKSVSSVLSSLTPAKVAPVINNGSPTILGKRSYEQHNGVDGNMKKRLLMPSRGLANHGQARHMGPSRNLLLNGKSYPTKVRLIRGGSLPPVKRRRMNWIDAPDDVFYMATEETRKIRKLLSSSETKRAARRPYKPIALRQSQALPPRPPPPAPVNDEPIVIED

How the values were obtained:
Assay in all cases: log2 fold change, soluble protein after heating vs DMSO (PISA); higher = thermal stabilisation; K562 lysate, 10 uM; active = over 0.2 and 3.5 SD of the protein, either way, in both replicates (recomputed)
[1] = compound: NCC(=O)Nc1ccc(-n2nc(C(F)(F)F)cc2-c2ccc3c(ccc4ccccc43)c2)cc1
Method in brief: (§1)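 To prepare the extract, K562 pellets were dounce-homogenised in PBS pH 7.4 with 1 mM MgCl2, giving crude material at 1 mg/mL protein. This was treated with 10 μM compound for 30 min, then heated in aliquots for 3 min over 48°C-58°C before pooling and addition of NP-40 to 0.5% at 4°C. Centrifugation at 21,000xg for 90 min left soluble protein in the supernatant, which TMTpro 16plex LC-MS/MS quantified with equalised channel sums. Results are log-two fold changes in thermal stability compared with solvent controls, from duplicates.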

vorinostat = compound: O=C(CCCCCCC(=O)Nc1ccccc1)NO [vorinostat]
Method in brief: as §1

silmitasertib = compound: O=C(O)c1ccc2c(c1)nc(Nc1cccc(Cl)c1)c1ccncc12 [silmitasertib]
Method in brief: as §1

[2] = compound: O=C1NC(=O)C(c2cnc3ccccn23)=C1c1cn2c3c(cc(F)cc13)CN(C(=O)N1CCCCC1)CC2
Method in brief: as §1

entospletinib = compound: c1cn2cc(-c3ccc4cn[nH]c4c3)nc(Nc3ccc(N4CCOCC4)cc3)c2n1 [entospletinib]
Method in brief: as §1

Row | Target | log2 fold change [1] | log2 fold change (vorinostat) | log2 fold change (silmitasertib) | log2 fold change [2] | log2 fold change (entospletinib)
1 | MRPS30 (UniProt Q9NP92) | inactive: -0.01 | inactive: -0.319 | inactive: 0.163 | inactive: 0.028 | inactive: -0.046
2 | MRPS9 (UniProt P82933) | inactive: 0.071 | inactive: -0.087 | inactive: 0.054 | inactive: 0.02 | inactive: -0.02
3 | MTX2 (UniProt O75431) | inactive: -0.042 | inactive: 0.045 | inactive: 0.017 | inactive: -0.029 | inactive: -0.042
4 | MSI2 (UniProt Q96DH6) | inactive: 0.053 | inactive: -0.046 | inactive: -0.021 | inactive: -0.052 | inactive: 0.033
5 | MT-CO2 (UniProt P00403) | inactive: -0.001 | inactive: 0.177 | inactive: 0.047 | inactive: 0.025 | inactive: 0.013
6 | MTRES1 (UniProt Q9P0P8) | inactive: -0.128 | inactive: -0.19 | inactive: 0.115 | inactive: 0.192 | inactive: 0.015
7 | MRPS24 (UniProt Q96EL2) | inactive: 0.03 | inactive: -0.148 | inactive: 0.003 | inactive: -0.097 | inactive: -0.021
8 | MTFR1L (UniProt Q9H019) | inactive: 0.042 | inactive: -0.273 | inactive: -0.18 | inactive: 0.033 | inactive: 0.01
9 | MTA1 (UniProt Q13330) | inactive: -0.005 | active: -0.212 | inactive: -0.037 | inactive: 0.016 | inactive: -0.036
